The list shows a part of the results. Shown are side measurements of this screen, not its main read-out; they come without a call. Compounds called inactive in the main read-out are mostly missing here. Words in brackets tell the shape of the fitted curve; partial curves, single points and poor fits give uncertain potencies.
Experiment: qHTS Assay to Find Inhibitors of Chronic Active B-Cell Receptor Signaling
Conditions: ABC-DLBCL IkBa-CBG/CBR reporter, luminescence ratio (green luciferase fused to IkBa over red control in TMD8 lymphoma cells), 4 h
In short: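 Cell line TMD8 (human ABC DLBCL), stably expressing tet-inducible CBG68-IkBa fusion and CBR; IMDM/0.5% FBS; cpd up to 46 uM; dox induction, 4 h, 37C/5% CO2; dual luminescence; green/red ratio; MG132 control.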

[1] = measured here: CBR red luminescence, cell number
[2] = measured here: IkBa-CBG green luminescence

| SMILES | AC50 [1] | AC50 [2] |
| --- | --- | --- |
| CCCCN(C)S(=O)(=O)c1ccc(C(=O)Nc2nnc(-c3cccs3)o2)cc1 | 17.8 µM [falling, single point] | – |
| Cc1ccc(C(=O)Nc2nc(-c3ccccn3)cs2)cc1S(=O)(=O)N1CCOCC1 | 4.61 µM [falling, full curve] | – |
| COc1cccc(-c2nn(-c3ccccc3)cc2C(=O)Nc2nccs2)c1 | 13 µM [falling, partial curve, poor fit] | – |
| Cc1ccc(S(=O)(=O)CCC(=O)Nc2nnc(-c3ccccc3S(C)(=O)=O)o2)cc1 | 6.51 µM [rising, single point] | – |
| O=C1C2C3C=CC(C3)C2C(=O)N1CCCCCCN1C(=O)C2C3C=CC(C3)C2C1=O (configuration not stated) | 35.5 µM [falling, single point] | – |
| COc1ccc(-c2nc(NC(=O)Cn3c(=O)oc4ccccc43)sc2C)cc1 | 8.2 µM [falling, partial curve, poor fit] | – |
| CCOc1cccc(N2C(=O)CC(N(CCc3ccc(OC)c(OC)c3)C(=O)CC)C2=O)c1 (configuration not stated) | 2.06 µM [rising, full curve, poor fit] | – |
| CC1(C)C(=O)OC(C(=O)c2ccc(C(C)(C)C)cc2)C(C)(C)C1=O (configuration not stated) | 0.517 µM [rising, full curve, poor fit] | – |
| O=C(Nc1ccccc1N1CCCCC1)C1CCN(C(=O)c2ccc(Cl)cc2)CC1 | 16.4 µM [falling, partial curve] | – |
| CCN(CC)C(=O)c1sc(NC(=O)Cc2cccs2)c(C#N)c1C | 12.6 µM [rising, partial curve, poor fit] | – |
| O=C(O)CCCC(=O)N1N=C(c2c(-c3ccccc3)c3cc(Cl)ccc3[nH]c2=O)CC1c1cccs1 (configuration not stated) | 18.4 µM [falling, single point] | 29.1 µM [rising, single point] |
| CCN(CC)S(=O)(=O)c1cccc(NC(=O)c2cc3ccccc3o2)c1 | 3.98 µM [falling, partial curve] | – |
| COc1ccc(NC(=O)CC2C(=O)N(c3ccc(F)cc3)C(=S)N2NC(=O)c2ccccc2)cc1 (configuration not stated) | 16.4 µM [falling, partial curve] | – |
| Cn1cc(C(=O)N/N=C/c2cccs2)c2ccccc21 | 10.3 µM [falling, partial curve] | – |
| Cc1ccc(C)c(-c2nnc(OCC(=O)Nc3cc(C)on3)c3ccccc23)c1 | 32.6 µM [falling, single point] | – |
| Cc1ccc2c(c1)C1C[N+](C)(CC(=O)Nc3ccccc3Cl)CCC1N2C(=O)c1ccccc1Cl (configuration not stated) | 6.51 µM [falling, partial curve] | – |
| CC(C)(C)C(=O)OC/C(N)=N/OC(=O)c1ccccc1 | 7.94 µM [rising, partial curve] | – |
| O=Cc1ccc2c(c1)CCN2Cc1ccccc1 | 15.8 µM [rising, single point] | – |
| C[C@@]12C(=O)Nc3ccc(F)cc3C(=O)N1[C@H]1c3ccccc3OC[C@@H]1[C@@H]2c1ccccc1 | 2.59 µM [falling, full curve] | 2.91 µM [rising, full curve, poor fit] |
| CCOC(=O)CSc1nnc(-c2ccc(NS(=O)(=O)c3ccc(C)cc3)cc2)o1 | 23.1 µM [falling, single point] | – |

For convenience, some entries already given.

| SMILES | AC50 [1] | AC50 [2] |
| --- | --- | --- |
| O=C1C2C3C=CC(C3)C2C(=O)N1CCCCCCN1C(=O)C2C3C=CC(C3)C2C1=O (configuration not stated) | 35.5 µM [falling, single point] | – |
| COc1ccc(-c2nc(NC(=O)Cn3c(=O)oc4ccccc43)sc2C)cc1 | 8.2 µM [falling, partial curve, poor fit] | – |
| CCOc1cccc(N2C(=O)CC(N(CCc3ccc(OC)c(OC)c3)C(=O)CC)C2=O)c1 (configuration not stated) | 2.06 µM [rising, full curve, poor fit] | – |

Continuation:

| SMILES | AC50 [1] | AC50 [2] |
| --- | --- | --- |
| COc1ccccc1CNS(=O)(=O)c1ccc2c(c1)oc(=O)n2C | 2.59 µM [falling, single point] | – |
| CC1CCCN(S(=O)(=O)CCNC(=O)c2ccccc2)C1 (configuration not stated) | 14.6 µM [rising, partial curve, poor fit] | – |
| COc1ccc(CN(C)C(=O)CCl)cc1 | 17.8 µM [falling, single point] | – |
| CCn1nnnc1NCc1ccc(OCc2c(F)cccc2Cl)c(OC)c1 | 17.8 µM [falling, partial curve] | – |
| CCCn1c(Nc2ccc(Cl)cc2)nc2ccccc21 | 22.4 µM [rising, single point] | – |
| c1ccc(-c2ccc(C3=Nn4c(Cn5nnc6ccccc65)nnc4SC3)cc2)cc1 | 0.1 µM [rising, full curve, poor fit] | – |
| Cc1nc(SCC(=O)NNC(=O)c2ccc(F)cc2)c2ccccc2n1 | 25.9 µM [falling, single point] | – |
| CCC(=O)c1ccc(/C=C/c2nc3ccccc3n2C)o1 | 35.5 µM [falling, single point] | – |
| C=CC[C@H](CC(=O)N(CCO)Cc1ccccc1)C(=O)NC[C@H](OC(=O)[C@@H](CC=C)Cc1ccc(F)cc1)c1ccccc1 | 29.1 µM [falling, single point] | – |
| Cc1nn(C)c(Oc2ccccc2)c1[N+](=O)[O-] | 0.366 µM [rising, full curve] | – |
| CC1CC(C)CN(CC(=O)N2CCOCC2)C1 (configuration not stated) | 12.6 µM [rising, single point] | – |
| O=C(Nc1cccc(-c2nc3ccccc3[nH]2)c1)c1ccc(C(=O)Nc2cccc(-c3nc4ccccc4[nH]3)c2)cc1 | 1.26 µM [rising, full curve, poor fit] | – |
| O=C(CCNc1ccc(Br)cc1)c1cccc([N+](=O)[O-])c1 | 35.5 µM [falling, single point] | – |
| C=CCOc1ccc2ccccc2c1CNn1c(C)n[nH]c1=S | 2.51 µM [rising, full curve, poor fit] | 12.6 µM [falling, partial curve] |
| COc1ccccc1NS(=O)(=O)c1cc(NC(=O)c2ccncc2)ccc1N1CCOCC1 | 20.6 µM [rising, single point] | – |
| COc1ccccc1N/C(N)=N/c1nc(C(F)(F)F)cc(=O)[nH]1 | 3.16 µM [falling, single point] | – |
| COC(=O)/C(C#N)=C/c1c(N2CCCCCC2)nc2ccccn2c1=O | 22.4 µM [falling, single point] | – |
| C/C(CC(=O)Nc1cccc(F)c1)=N\NC(=O)C(=O)NC1CCCCC1 | 6.51 µM [falling, partial curve] | – |
| Cc1cc(C)c2sc(N(CCN(C)C)C(=O)c3c(F)cccc3F)nc2c1 | 10 µM [falling, partial curve] | – |

Source: PubChem BioAssay AID493014 (National Center for Advancing Translational Sciences (NCATS), 2011)
